Source: paper PMC12668310, “High‐Throughput Synthesis and Screening of a Cyanimide Library Identifies Selective Inhibitors of ISG15‐Specific Protease mUSP18” (Angewandte Chemie (International Ed. in English), 2025)
Results are given in words; binding and its absence hold for the method and conditions named. Binding seen in cells or lysates may run through a third protein. Some entries that bind do so weakly or less than the wild type.

Sequences of proteins named here, by UniProt entry; tags and fusion partners are left off. Residues count along the entry.
UniProt Q9WTV6: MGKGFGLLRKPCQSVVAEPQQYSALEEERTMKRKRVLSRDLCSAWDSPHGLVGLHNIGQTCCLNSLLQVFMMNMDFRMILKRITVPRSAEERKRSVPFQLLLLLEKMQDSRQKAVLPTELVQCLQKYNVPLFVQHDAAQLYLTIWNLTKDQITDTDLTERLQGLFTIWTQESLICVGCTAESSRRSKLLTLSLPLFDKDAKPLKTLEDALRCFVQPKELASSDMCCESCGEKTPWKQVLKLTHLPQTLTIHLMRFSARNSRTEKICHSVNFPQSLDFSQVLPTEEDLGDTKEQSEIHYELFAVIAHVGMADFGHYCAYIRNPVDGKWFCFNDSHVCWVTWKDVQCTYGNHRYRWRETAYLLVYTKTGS
UniProt P05161, residues 1-157: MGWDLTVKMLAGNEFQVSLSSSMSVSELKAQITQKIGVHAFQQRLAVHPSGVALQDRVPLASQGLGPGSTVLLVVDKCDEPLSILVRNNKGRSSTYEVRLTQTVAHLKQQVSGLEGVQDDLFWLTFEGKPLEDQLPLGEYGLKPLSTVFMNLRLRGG
UniProt P52630: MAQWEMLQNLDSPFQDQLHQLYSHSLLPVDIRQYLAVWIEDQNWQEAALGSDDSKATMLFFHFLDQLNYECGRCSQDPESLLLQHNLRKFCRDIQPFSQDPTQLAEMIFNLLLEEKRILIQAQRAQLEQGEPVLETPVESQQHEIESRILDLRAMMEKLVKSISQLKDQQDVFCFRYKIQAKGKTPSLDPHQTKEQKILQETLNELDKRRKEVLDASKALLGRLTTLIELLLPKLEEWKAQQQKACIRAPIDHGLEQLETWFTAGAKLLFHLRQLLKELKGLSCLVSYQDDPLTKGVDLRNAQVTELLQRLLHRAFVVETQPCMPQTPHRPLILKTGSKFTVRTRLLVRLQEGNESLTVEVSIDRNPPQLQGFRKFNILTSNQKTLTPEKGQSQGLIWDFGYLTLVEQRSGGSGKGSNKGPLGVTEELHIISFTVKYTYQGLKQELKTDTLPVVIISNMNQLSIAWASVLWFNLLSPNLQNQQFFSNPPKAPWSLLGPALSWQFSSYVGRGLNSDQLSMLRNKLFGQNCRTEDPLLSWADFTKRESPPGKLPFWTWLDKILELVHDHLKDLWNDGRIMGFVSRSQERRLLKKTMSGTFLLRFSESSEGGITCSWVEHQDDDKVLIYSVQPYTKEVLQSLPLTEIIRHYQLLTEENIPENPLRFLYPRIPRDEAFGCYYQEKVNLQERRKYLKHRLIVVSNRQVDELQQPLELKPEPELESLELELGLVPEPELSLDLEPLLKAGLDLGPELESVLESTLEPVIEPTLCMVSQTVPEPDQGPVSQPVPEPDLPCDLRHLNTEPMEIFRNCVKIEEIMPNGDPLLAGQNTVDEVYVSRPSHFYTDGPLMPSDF

Target: NanoLuc (NLuc) luciferase-fused murine USP18 (mouse) (UniProt Q9WTV6)
Assay: FRET or BRET; NanoBRET in HEK293T cells expressing NanoLuc-fused USP18 and HaloTag-fused ISG15 or STAT2; cells treated with increasing concentrations of BB07CA902 and BB06CA902 (up to 10 µM); p53-MDM2 as negative control pair

HaloTag-fused ISG15 (from UniProt P05161 1-157)
binding: binds

HaloTag-fused STAT2 (from UniProt P52630 1-851)
binding: binds
